These are yes or no findings as the source states them, for the method shown. In cells and extracts the contact can be indirect. Some binding calls cover weakened binding; strength is not graded here.

By UniProt entry, the sequences of proteins in these tests, tags left out.
UniProt Q70CQ3: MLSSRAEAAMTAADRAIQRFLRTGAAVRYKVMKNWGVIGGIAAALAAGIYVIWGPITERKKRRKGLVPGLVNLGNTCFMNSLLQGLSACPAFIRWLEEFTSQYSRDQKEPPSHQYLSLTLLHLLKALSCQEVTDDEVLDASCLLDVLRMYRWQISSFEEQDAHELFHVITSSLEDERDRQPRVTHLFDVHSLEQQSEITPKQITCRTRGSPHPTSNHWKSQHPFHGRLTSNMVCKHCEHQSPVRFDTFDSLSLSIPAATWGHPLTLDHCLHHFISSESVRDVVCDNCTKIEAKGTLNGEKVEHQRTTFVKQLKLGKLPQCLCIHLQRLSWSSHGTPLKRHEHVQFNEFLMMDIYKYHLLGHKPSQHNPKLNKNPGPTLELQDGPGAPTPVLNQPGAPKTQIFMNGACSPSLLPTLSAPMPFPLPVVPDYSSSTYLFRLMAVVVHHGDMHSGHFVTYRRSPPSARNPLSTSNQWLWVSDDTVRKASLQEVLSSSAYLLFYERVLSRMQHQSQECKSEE
UniProt P01106: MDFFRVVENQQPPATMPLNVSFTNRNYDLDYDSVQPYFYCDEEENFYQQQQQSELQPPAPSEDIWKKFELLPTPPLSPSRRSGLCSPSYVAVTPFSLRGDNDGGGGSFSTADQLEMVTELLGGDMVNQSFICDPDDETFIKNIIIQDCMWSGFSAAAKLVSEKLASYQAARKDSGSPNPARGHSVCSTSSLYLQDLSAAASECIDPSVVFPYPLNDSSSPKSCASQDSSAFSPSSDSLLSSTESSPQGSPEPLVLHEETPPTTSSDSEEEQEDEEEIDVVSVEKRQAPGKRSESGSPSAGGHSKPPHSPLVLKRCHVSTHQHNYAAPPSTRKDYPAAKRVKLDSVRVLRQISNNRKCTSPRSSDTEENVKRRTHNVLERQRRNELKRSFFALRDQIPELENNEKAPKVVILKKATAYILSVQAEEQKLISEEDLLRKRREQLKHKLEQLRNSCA

The results in this text go back to paper PMC9724415.

For this experiment, the target named is USP30 (human (endogenous in HSC4)) (UniProt Q70CQ3). The experiment in a line: co-IP; HSC4 cell lysates (1% Triton X-100, 150 mM NaCl, 20 mM Tris pH 7.5, 1 mM EDTA, protease inhibitors) incubated with normal IgG, anti-USP30 or anti-c-Myc antibodies, then Protein A/G PLUS-Agarose beads at 4 °C for 2 h; washed three times; Western blot. On the technique in general: A western blot detects proteins with antibodies after separation by electrophoresis.

As to c-Myc (from UniProt P01106 1-454), the binding result is “binds”.
